Results from the supplement of paper PMC7877785.
± gives the uncertainty stated by the source. Many entries were measured with a wide error.

Assay: self-splicing fitness, log relative to wild type (ln ratio); higher = more splicing; Tetrahymena group I intron in knt gene, E. coli kanamycin selection, DiMSum; sequences stand for … in CUCUCU…GGAGGGAAAAGUUAUCAGGCAUGCACCUGGUAGCUAGUCUUUAAACCAAUAGAUUGCAUCGGUUUAAAAGGCAAGACCGUCAAAUUGCGGGAAAGGGGUCAACAGCCGUUCAGUACCAAGUCUCAGGGGAAACUUUGAGAUGGCCUUGCAAAGGGUAUGGUAAUAAGCUGACGGACAUGGUCCUAACCACGCAGCCAAGUCCUAAGUCAACAGAUCUUCUGUUGAUAUGGAUGCAGUUCACAGACUAAAUGUCGGUCGGGGAAGAUGUAUUCUUCUCAUAAGAUAUAGUCGGACCUCUCCUUAAUGGGAGCUAGCGGAUGAAGUGAUGCAACACUGGAGCCGCUGGGAACUAAUUUGUAUGCGAAAGUAUAUUGAUUAGUUUUGGAGUACUCGUGGUCG
Outline: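 Pooled colonies went to amplicon sequencing on an Illumina HiSeq 2500 after six replicate transformations. The plates were LB agar with 100 μg/mL carbenicillin, 50 μM IPTG and 0.2% rhamnose, with or without 25 μg/mL kanamycin, incubated overnight at 37°C or 30°C. The E. coli BL21(DE3) library had all eight P1ex-region intron nucleotides randomised, the intron placed in the knt kanamycin-resistance gene on pET-22b(+). DiMSum fitness is the error-weighted combination of replicate fold changes, kanamycin against none, normalised to wild type.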

Sequence	self-splicing fitness (ln) (37 °C)	self-splicing fitness (ln) (30 °C)
GUGGAGCAAUAUUACGAAAA	-2.29 ± 0.64	–
CGGUAGCAAUAUUACGGGCA	-0.528 ± 0.2	-1.75 ± 0.24
AGAGAGCAAUAUUACGGGAU	–	-2.33 ± 0.59
CACGAGCAAUAUUACGUCCC	-1.67 ± 0.65	–
AUCGAGCAAUAUUACGGUAG	–	-4.34 ± 0.51
CUUUAGCAAUAUUACGACUU	–	-3.28 ± 0.65
UGAUAGCAAUAUUACGUCUC	-1.73 ± 0.51	-2.23 ± 0.57
CAUAAGCAAUAUUACGUCCC	-1.39 ± 0.59	-3.56 ± 0.75
UCGGAGCAAUAUUACGACAA	-0.777 ± 0.56	–
GCGUAGCAAUAUUACGAAGG	–	-2.9 ± 0.6
CGCAAGCAAUAUUACGAUGC	–	-4.66 ± 0.51
CGCCAGCAAUAUUACGACCA	-2.32 ± 0.64	-2.86 ± 0.62
CCACAGCAAUAUUACGCUGC	-2.72 ± 0.28	-3.06 ± 0.17
UUCGAGCAAUAUUACGGUCG	–	-4.23 ± 0.51
AGGGAGCAAUAUUACGUAUC	-2 ± 0.52	–
GGGGAGCAAUAUUACGCAUC	-1.81 ± 0.59	-2.11 ± 0.59
ACAUAGCAAUAUUACGAGGA	–	-3.66 ± 0.52
UGCUAGCAAUAUUACGAAGC	-2.03 ± 0.56	-2.5 ± 0.53
UGUUAGCAAUAUUACGCAGC	–	-3.09 ± 0.53
AGGCAGCAAUAUUACGCUGC	–	-2.5 ± 0.63
GAUCAGCAAUAUUACGCAUU	-1.05 ± 0.32	-2.36 ± 0.26

Sequence	self-splicing fitness (ln) (37 °C)	self-splicing fitness (ln) (30 °C)
AAUAAGCAAUAUUACGUAGC	–	-5.06 ± 0.51
GCCGAGCAAUAUUACGAUGU	-0.267 ± 0.069	-0.691 ± 0.057
UUCGAGCAAUAUUACGAGAC	-0.595 ± 1	–
UCGAAGCAAUAUUACGCUCG	-1.39 ± 0.27	-2.53 ± 0.31
AAGGAGCAAUAUUACGUAUC	–	-4.66 ± 0.73
UGUGAGCAAUAUUACGUUCC	-2.28 ± 0.78	-1.07 ± 0.52
UCAUAGCAAUAUUACGCGCU	-3.43 ± 0.6	–
CCCUAGCAAUAUUACGAACA	–	-3.19 ± 0.82
CUGUAGCAAUAUUACGAGCC	0.694 ± 1.1	–
GGCCAGCAAUAUUACGACCC	–	-2.9 ± 0.84
GAUAAGCAAUAUUACGGAGA	-2.78 ± 0.24	-3.48 ± 0.36
UGCGAGCAAUAUUACGGUCC	-1.21 ± 0.62	-3.19 ± 0.82
GAUGAGCAAUAUUACGGAAG	-1.47 ± 0.51	–
UUGGAGCAAUAUUACGAUGG	-1.54 ± 0.21	-1.53 ± 0.21
CGCUAGCAAUAUUACGGGGG	-2.43 ± 0.16	-2.53 ± 0.14
UUUUAGCAAUAUUACGUUGU	-2.13 ± 0.24	-2.65 ± 0.18
CGUCAGCAAUAUUACGAAGC	–	-3.69 ± 0.75
GGGCAGCAAUAUUACGAUGG	-3.47 ± 0.72	–
AGGAAGCAAUAUUACGUUCC	-2.59 ± 0.48	-2.96 ± 0.39
UUGAAGCAAUAUUACGAUCC	–	-2.97 ± 0.77
CUGGAGCAAUAUUACGCGUA	–	-3.23 ± 1

A second format for part of the listing above.

| Sequence | self-splicing fitness (ln) (37 °C) | self-splicing fitness (ln) (30 °C) |
| --- | --- | --- |
| CGUCAGCAAUAUUACGAAGC | – | -3.69 ± 0.75 |
| GGGCAGCAAUAUUACGAUGG | -3.47 ± 0.72 | – |
| AGGAAGCAAUAUUACGUUCC | -2.59 ± 0.48 | -2.96 ± 0.39 |

Next part

Sequence	self-splicing fitness (ln) (37 °C)	self-splicing fitness (ln) (30 °C)
GGGAAGCAAUAUUACGUACC	-1.77 ± 0.58	-3.65 ± 0.53
CUCGAGCAAUAUUACGAAUU	-3.05 ± 0.6	-5.36 ± 0.71
GUCUAGCAAUAUUACGAUUG	-2.14 ± 0.26	-4.37 ± 0.51
ACUGAGCAAUAUUACGAAGC	–	-3.3 ± 0.66
GCUGAGCAAUAUUACGGCGG	-2.26 ± 0.63	–
UCGUAGCAAUAUUACGAUCC	-1.6 ± 0.82	–
AUAUAGCAAUAUUACGGAAA	–	-1.74 ± 0.84
CUGCAGCAAUAUUACGCACA	-1.48 ± 0.19	-2.82 ± 0.19
UACGAGCAAUAUUACGGGAC	-2.03 ± 0.51	-4.39 ± 1
CGCGAGCAAUAUUACGACGA	–	-3.08 ± 0.76
UCUGAGCAAUAUUACGUGUC	-3.49 ± 0.52	–
CGCCAGCAAUAUUACGUCCA	–	-2.91 ± 0.57
CAAGAGCAAUAUUACGCCCC	-1.33 ± 1.2	–
UAUGAGCAAUAUUACGGAGC	-1.19 ± 0.73	–
CCUAAGCAAUAUUACGAAUA	-3.27 ± 0.52	–
CUACAGCAAUAUUACGGCCC	-2.3 ± 0.62	-3.44 ± 0.6
AGAGAGCAAUAUUACGAAGC	0.459 ± 1.2	–
GAUUAGCAAUAUUACGAUCC	-2.6 ± 0.77	-4.58 ± 0.72
UGCGAGCAAUAUUACGAUAU	–	-5.04 ± 1
GAUGAGCAAUAUUACGAUCC	-1.28 ± 0.56	-2.02 ± 0.87
CUCUAGCAAUAUUACGAGGC	-3.28 ± 0.74	–

Sequence	self-splicing fitness (ln) (37 °C)	self-splicing fitness (ln) (30 °C)
GGACAGCAAUAUUACGUAUC	-0.855 ± 0.11	-0.918 ± 0.093
AAGUAGCAAUAUUACGCUUC	–	-4.67 ± 0.59
GAUGAGCAAUAUUACGACGG	-1.39 ± 0.63	-3.56 ± 0.53
ACUAAGCAAUAUUACGGGAG	-1.88 ± 0.14	-2.5 ± 0.11
GCCUAGCAAUAUUACGGGGC	–	-4.15 ± 0.59
CCAUAGCAAUAUUACGAAUU	-2.51 ± 0.39	-3.3 ± 0.23
UCGGAGCAAUAUUACGUGAU	–	-3.75 ± 0.59
GCGAAGCAAUAUUACGGUCG	-2.77 ± 0.4	-3.65 ± 0.32
CAUAAGCAAUAUUACGGGCU	–	-3.81 ± 1
CCUAAGCAAUAUUACGAUGC	-1.88 ± 0.16	-3.49 ± 0.17
CCUGAGCAAUAUUACGCAGC	–	-2.97 ± 0.75
UUAGAGCAAUAUUACGGUUC	-1.19 ± 0.64	–
GUAAAGCAAUAUUACGAUAC	-0.547 ± 0.16	-0.815 ± 0.14
GGUUAGCAAUAUUACGUGCC	-1.51 ± 0.5	–
CGUUAGCAAUAUUACGACCG	-0.193 ± 0.2	-1.13 ± 0.14
UUAGAGCAAUAUUACGGGAA	-0.296 ± 0.16	-2.25 ± 0.16
AUUGAGCAAUAUUACGAGAG	–	-3.8 ± 1
AAUUAGCAAUAUUACGCUGC	–	-3.63 ± 1
UGAUAGCAAUAUUACGUAGC	-0.141 ± 0.6	-2.92 ± 0.55
